Source: the supplement of paper PMC10849652
This is one part of the list.

Amino acid sequences for entries named in this document (tags omitted). A change or cut given only in a name is not applied to a line headed by its entry.
UniProt Q8WY54: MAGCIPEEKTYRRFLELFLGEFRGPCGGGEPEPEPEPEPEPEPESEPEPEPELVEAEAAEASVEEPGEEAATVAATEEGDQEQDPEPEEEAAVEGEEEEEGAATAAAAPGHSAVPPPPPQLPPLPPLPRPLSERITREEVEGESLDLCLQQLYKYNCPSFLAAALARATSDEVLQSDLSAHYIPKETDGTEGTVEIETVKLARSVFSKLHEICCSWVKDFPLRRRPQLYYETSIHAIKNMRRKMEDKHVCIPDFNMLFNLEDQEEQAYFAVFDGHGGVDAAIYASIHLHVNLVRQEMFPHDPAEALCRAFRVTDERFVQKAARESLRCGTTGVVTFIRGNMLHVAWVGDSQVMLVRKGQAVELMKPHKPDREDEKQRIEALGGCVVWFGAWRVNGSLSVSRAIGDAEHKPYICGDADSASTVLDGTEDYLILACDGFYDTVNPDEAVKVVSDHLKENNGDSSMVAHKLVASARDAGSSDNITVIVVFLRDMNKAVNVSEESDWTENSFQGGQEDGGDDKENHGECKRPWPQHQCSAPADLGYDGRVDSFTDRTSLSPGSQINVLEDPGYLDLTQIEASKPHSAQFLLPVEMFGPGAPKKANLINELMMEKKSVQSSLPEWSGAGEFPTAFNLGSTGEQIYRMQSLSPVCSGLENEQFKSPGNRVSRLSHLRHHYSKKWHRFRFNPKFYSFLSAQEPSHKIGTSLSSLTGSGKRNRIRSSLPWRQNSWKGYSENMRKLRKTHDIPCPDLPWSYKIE
UniProt P30044: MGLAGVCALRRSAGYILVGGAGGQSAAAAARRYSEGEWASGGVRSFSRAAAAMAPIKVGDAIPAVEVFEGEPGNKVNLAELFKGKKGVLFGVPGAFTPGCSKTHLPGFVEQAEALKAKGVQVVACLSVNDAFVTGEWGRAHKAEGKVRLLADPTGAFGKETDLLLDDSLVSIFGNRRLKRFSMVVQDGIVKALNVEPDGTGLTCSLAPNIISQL
UniProt Q13162: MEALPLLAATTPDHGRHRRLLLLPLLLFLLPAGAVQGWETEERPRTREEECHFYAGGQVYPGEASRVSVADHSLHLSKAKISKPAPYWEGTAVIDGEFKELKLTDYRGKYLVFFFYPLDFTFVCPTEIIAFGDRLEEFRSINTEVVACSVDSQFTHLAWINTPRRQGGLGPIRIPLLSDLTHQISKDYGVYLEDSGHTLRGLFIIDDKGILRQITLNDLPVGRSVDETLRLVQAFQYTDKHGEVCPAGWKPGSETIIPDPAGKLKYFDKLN
UniProt P62714, whole entry, looked up: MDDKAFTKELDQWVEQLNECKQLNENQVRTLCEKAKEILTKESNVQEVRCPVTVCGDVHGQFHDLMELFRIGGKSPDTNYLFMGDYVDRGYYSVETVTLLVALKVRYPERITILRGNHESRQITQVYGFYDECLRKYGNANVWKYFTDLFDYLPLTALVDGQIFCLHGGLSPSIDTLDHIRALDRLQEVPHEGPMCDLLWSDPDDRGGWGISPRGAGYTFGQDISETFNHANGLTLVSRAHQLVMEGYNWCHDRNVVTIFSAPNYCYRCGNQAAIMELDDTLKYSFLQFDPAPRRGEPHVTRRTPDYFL
UniProt Q8WWY3: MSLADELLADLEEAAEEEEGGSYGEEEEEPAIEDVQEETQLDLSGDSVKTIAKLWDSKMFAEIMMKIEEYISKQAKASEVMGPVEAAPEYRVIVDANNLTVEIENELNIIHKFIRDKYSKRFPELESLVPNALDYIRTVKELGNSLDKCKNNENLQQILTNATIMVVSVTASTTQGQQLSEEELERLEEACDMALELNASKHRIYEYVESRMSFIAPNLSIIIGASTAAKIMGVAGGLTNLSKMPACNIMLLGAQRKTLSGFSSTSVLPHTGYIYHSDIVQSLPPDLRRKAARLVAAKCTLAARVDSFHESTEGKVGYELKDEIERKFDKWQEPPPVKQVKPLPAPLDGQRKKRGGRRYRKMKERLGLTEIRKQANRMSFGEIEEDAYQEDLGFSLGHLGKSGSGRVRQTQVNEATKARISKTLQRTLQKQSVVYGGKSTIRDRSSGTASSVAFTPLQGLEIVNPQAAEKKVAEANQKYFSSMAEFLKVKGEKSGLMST
UniProt Q15173: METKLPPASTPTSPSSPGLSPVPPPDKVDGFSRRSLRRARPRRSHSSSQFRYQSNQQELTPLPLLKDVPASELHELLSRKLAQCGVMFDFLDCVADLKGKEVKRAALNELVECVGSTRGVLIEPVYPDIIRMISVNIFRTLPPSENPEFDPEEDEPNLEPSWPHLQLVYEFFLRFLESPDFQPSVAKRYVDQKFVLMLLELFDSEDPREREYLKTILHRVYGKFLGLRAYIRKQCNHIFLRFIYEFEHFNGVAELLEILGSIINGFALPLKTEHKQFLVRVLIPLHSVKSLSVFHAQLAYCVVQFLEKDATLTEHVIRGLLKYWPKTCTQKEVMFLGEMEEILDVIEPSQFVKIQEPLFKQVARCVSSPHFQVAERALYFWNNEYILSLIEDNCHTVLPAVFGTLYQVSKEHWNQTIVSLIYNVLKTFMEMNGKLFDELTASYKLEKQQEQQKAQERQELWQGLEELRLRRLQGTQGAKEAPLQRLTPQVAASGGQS
UniProt P60510: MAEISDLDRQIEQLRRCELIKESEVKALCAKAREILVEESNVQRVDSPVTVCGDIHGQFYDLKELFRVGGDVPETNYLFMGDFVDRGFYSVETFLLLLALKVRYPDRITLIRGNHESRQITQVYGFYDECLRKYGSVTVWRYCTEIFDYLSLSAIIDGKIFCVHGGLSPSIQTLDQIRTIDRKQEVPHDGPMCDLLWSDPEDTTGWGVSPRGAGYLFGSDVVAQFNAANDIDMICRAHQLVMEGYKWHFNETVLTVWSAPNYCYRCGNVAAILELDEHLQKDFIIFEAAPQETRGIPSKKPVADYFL
UniProt O00743: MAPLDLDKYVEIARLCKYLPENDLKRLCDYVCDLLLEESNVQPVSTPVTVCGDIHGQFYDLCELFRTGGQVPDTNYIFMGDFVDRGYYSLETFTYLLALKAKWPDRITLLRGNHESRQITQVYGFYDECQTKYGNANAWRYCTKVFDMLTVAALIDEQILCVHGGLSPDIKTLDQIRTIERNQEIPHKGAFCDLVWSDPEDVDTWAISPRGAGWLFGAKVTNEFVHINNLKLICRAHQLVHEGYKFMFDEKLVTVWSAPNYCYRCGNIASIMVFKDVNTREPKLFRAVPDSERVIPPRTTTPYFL
UniProt Q96C90: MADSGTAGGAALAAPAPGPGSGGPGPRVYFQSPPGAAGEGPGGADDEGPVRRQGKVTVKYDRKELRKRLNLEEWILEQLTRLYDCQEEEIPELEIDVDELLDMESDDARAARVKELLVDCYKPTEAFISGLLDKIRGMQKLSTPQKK
UniProt Q8TF05: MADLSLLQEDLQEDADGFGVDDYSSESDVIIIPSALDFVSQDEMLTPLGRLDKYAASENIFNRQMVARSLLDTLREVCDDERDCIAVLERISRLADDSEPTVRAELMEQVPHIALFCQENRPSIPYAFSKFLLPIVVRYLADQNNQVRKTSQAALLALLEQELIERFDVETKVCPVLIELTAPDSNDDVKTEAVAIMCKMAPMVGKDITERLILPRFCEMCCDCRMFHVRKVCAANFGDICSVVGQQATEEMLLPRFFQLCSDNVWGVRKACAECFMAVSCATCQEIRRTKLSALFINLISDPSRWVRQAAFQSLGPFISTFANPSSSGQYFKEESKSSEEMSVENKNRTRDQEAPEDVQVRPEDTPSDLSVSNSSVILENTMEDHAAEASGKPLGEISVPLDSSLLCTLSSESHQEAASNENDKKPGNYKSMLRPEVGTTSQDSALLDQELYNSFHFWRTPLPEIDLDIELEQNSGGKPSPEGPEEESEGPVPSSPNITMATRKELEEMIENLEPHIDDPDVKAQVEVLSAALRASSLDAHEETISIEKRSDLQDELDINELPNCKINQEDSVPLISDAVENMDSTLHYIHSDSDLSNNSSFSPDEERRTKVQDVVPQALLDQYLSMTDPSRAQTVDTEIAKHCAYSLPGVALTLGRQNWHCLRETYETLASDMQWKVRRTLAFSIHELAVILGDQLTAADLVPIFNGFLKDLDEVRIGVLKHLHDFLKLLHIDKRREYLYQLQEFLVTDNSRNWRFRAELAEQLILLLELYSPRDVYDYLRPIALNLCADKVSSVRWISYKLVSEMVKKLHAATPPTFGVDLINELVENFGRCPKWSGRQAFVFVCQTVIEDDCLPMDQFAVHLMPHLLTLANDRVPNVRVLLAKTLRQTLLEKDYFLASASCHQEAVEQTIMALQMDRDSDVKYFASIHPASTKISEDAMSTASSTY
UniProt P55345: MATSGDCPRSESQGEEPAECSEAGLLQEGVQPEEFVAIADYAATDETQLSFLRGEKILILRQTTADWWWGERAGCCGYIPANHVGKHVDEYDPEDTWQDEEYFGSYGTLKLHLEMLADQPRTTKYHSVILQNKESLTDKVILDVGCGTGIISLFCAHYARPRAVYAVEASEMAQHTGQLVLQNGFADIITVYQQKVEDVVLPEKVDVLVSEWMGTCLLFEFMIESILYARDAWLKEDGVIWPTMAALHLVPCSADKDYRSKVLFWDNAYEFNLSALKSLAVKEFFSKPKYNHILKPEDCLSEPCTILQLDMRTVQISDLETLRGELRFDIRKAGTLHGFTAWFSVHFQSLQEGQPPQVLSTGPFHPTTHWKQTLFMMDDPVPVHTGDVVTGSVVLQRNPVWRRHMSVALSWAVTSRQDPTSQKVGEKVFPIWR
UniProt P53041: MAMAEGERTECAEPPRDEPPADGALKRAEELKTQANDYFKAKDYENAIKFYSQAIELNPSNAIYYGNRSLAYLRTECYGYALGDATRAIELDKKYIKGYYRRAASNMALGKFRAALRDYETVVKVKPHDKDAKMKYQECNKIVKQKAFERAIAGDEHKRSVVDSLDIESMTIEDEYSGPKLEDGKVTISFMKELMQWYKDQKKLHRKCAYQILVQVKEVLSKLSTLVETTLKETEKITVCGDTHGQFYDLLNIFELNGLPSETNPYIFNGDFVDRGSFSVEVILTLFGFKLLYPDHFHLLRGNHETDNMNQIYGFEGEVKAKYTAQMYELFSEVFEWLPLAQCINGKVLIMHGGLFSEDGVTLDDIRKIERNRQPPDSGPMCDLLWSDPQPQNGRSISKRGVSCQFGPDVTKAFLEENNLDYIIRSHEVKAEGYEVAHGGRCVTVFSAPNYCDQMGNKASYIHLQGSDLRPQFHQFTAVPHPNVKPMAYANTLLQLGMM
UniProt O94906: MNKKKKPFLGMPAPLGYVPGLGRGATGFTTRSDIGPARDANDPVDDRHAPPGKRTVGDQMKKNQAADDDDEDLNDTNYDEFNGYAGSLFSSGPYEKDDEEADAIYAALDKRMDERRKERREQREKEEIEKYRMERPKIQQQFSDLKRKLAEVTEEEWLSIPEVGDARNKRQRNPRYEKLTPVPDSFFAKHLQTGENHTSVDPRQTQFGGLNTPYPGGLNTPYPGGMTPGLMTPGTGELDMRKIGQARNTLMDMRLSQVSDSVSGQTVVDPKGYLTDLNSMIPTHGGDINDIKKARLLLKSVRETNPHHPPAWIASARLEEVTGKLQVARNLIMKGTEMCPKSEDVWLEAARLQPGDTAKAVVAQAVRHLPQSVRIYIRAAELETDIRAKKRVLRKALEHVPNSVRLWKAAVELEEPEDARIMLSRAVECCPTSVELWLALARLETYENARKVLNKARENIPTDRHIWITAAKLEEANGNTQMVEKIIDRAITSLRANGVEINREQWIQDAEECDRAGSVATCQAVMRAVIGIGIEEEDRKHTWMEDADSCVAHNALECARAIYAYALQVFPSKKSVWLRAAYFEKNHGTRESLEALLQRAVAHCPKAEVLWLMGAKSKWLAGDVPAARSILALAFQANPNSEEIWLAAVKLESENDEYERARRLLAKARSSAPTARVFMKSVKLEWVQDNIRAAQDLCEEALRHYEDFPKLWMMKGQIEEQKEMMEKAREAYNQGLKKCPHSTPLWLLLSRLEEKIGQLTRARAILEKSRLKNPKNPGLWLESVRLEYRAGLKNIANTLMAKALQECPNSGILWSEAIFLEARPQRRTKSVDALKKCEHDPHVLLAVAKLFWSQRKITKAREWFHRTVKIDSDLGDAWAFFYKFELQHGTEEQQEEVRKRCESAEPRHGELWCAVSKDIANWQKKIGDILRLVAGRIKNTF
UniProt P50897: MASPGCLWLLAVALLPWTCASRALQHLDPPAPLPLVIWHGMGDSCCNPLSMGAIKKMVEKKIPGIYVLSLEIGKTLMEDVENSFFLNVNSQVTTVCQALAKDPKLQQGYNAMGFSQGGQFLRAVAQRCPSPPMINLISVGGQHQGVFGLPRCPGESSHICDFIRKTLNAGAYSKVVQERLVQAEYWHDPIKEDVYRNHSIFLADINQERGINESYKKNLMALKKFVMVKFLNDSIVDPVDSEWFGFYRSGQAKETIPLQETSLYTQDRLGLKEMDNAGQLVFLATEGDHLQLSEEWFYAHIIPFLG
UniProt Q8TAE6: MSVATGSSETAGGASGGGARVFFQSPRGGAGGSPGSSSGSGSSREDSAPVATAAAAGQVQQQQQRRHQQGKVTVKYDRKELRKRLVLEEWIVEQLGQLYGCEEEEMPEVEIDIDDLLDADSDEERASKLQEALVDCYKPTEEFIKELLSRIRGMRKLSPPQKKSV

compound: Cc1sc2c(c1C)C(c1ccc(Cl)cc1)=N[C@@H](CC(=O)OC(C)(C)C)c1nnc(C)n1-2; test: log2 fold change, soluble protein after heating vs DMSO (PISA); higher = thermal stabilisation; K562 lysate, 10 uM; active = over 0.2 and 3.5 SD of the protein, either way, in both replicates (recomputed)
Outline: (§1)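 Soluble protein was defined as the supernatant remaining after 21,000xg for 90 min, following pooling of heated aliquots and adjustment to 0.5% NP-40 at 4°C. Before that, crude K562 extract at 1 mg/mL protein in PBS pH 7.4 with 1 mM MgCl2 was treated with 10 μM compound for 30 min and heated for 3 min across 48°C-58°C. Quantification used TMTpro 16plex LC-MS/MS with channel sums equalised, and values are log-two fold changes in thermal stability relative to solvent controls from duplicates.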

| Target | log2 fold change |
| --- | --- |
| PPP2R1B isoform 2 (UniProt P30154) | inactive: 0.011 |
| PRKAA1 isoform 2 (UniProt Q13131) | inactive: 0.028 |
| PPP2R2A isoform 2 (UniProt P63151) | inactive: -0.068 |
| PPP3R1 (UniProt P63098) | inactive: 0.007 |
| PPP4R3A (UniProt Q6IN85) | inactive: 0.007 |
| PPM1E (UniProt Q8WY54) | inactive: 0.017 |
| PRKAB2 (UniProt O43741) | inactive: -0.047 |
| PRKD2 isoform 3 (UniProt Q9BZL6) | inactive: 0.02 |
| PRMT3 (UniProt O60678) | inactive: -0.007 |
| PRPF39 (UniProt Q86UA1) | inactive: 0.021 |
| PRDX5 (UniProt P30044) | inactive: 0 |
| PRMT7 (UniProt Q9NVM4) | inactive: -0.039 |
| PRDX4 (UniProt Q13162) | inactive: -0.052 |
| PPP2CB (UniProt P62714) | inactive: 0 |
| PRPF31 (UniProt Q8WWY3) | inactive: 0.01 |
| PPP2R5B (UniProt Q15173) | inactive: -0.006 |
| PRKCQ (UniProt Q04759) | inactive: 0.045 |

| Target | log2 fold change |
| --- | --- |
| PPP4C (UniProt P60510) | inactive: 0.025 |
| PPP6C isoform 3 (UniProt O00743) | inactive: 0.024 |
| PRAME (UniProt P78395) | inactive: -0.008 |
| PROSER2 (UniProt Q86WR7) | inactive: 0.029 |
| PRKCSH (UniProt K7ELL7) | inactive: -0.112 |
| PROS1 (UniProt P07225) | inactive: -0.008 |
| PPP3CB (UniProt P16298) | inactive: 0.002 |
| PPP6R2 isoform 5 (UniProt O75170) | inactive: -0.003 |
| PPP1R14B (UniProt Q96C90) | inactive: -0.081 |
| PRKACA (UniProt P17612) | inactive: -0.013 |
| PPP4R1 (UniProt Q8TF05) | inactive: -0.013 |
| PRMT2 (UniProt P55345) | inactive: -0.032 |
| PPP5C (UniProt P53041) | inactive: -0.045 |
| PRPF6 (UniProt O94906) | inactive: -0.01 |
| PPT1 (UniProt P50897) | inactive: 0.016 |
| PPP1R14C (UniProt Q8TAE6) | inactive: -0.078 |

compound: c1ccc([C@@H]2C[C@H]2NC2CCNCC2)cc1; test: as above
Outline: as §1

| Target | log2 fold change |
| --- | --- |
| PPP2R1B isoform 2 (UniProt P30154) | inactive: 0.026 |
| PRKAA1 isoform 2 (UniProt Q13131) | inactive: -0.036 |
| PPP2R2A isoform 2 (UniProt P63151) | inactive: -0.011 |
| PPP3R1 (UniProt P63098) | inactive: 0.063 |
| PPP4R3A (UniProt Q6IN85) | inactive: -0.051 |
| PPM1E (UniProt Q8WY54) | inactive: -0.067 |
| PRKAB2 (UniProt O43741) | inactive: -0.418 |
| PRKD2 isoform 3 (UniProt Q9BZL6) | inactive: 0.104 |
| PRMT3 (UniProt O60678) | inactive: -0.017 |
| PRPF39 (UniProt Q86UA1) | inactive: 0.04 |
| PRDX5 (UniProt P30044) | inactive: -0.016 |
| PRMT7 (UniProt Q9NVM4) | inactive: 0.014 |
| PRDX4 (UniProt Q13162) | inactive: -0.103 |
| PPP2CB (UniProt P62714) | inactive: -0.04 |
| PRPF31 (UniProt Q8WWY3) | inactive: 0.028 |
| PPP2R5B (UniProt Q15173) | inactive: 0.066 |
| PRKCQ (UniProt Q04759) | inactive: -0.015 |

| Target | log2 fold change |
| --- | --- |
| PPP4C (UniProt P60510) | inactive: 0.016 |
| PPP6C isoform 3 (UniProt O00743) | inactive: -0.063 |
| PRAME (UniProt P78395) | inactive: 0.026 |
| PROSER2 (UniProt Q86WR7) | inactive: 0.069 |
| PRKCSH (UniProt K7ELL7) | inactive: -0.048 |
| PROS1 (UniProt P07225) | inactive: -0.037 |
| PPP3CB (UniProt P16298) | inactive: -0.025 |
| PPP6R2 isoform 5 (UniProt O75170) | inactive: -0.032 |
| PPP1R14B (UniProt Q96C90) | inactive: -0.111 |
| PRKACA (UniProt P17612) | inactive: -0.245 |
| PPP4R1 (UniProt Q8TF05) | inactive: -0.006 |
| PRMT2 (UniProt P55345) | inactive: -0.005 |
| PPP5C (UniProt P53041) | inactive: -0.082 |
| PRPF6 (UniProt O94906) | inactive: 0.04 |
| PPT1 (UniProt P50897) | inactive: 0.076 |
| PPP1R14C (UniProt Q8TAE6) | inactive: -0.147 |
